Literature values in PMC3583338 (Clinical pharmacology and therapeutics, 2008).

For `CC(C)(C(=O)O)c1ccc(C(O)CCCN2CCC(C(O)(c3ccccc3)c3ccccc3)CC2)cc1` (stereo not shown) [fexofenadine], the “share of fexofenadine elimination by renal excretion” value is listed as 5-10%.
